# This is one part of the list.
# By UniProt entry, the sequences of proteins in these tests, tags left out.
# UniProt Q0JBA9, entry or part of it: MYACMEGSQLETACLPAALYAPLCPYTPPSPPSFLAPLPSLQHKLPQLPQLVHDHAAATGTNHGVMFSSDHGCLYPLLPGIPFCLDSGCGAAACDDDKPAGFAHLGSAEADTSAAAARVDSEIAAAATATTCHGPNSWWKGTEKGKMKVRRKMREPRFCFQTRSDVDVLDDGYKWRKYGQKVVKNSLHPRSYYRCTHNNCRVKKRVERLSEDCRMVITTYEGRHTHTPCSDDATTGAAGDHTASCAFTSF
# Target: OsWRKY34 (Oryza sativa, UniProt Q0JBA9 1-250)
# Experiment: protein-binding microarray (RPBM); PBS, 2% BSA, 51.3 ng/ul salmon testes DNA, 50 uM zinc acetate, 200 nM TF, 25 C, 1 h; high values mean tight binding
# Conditions: protein: recombinant; tags: N-terminal polyhistidine and DsRed monomer fusion (pET32a); label: CyDye5-dUTP incorporated in the synthesized complementary strand; 3' TTTTT single-stranded linker to array surface; dsDNA, one strand shown
# Procedure, shortened: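 A custom Agilent array was converted to double-stranded form by primer extension with Cy5-dUTP and blocked with 2% BSA. Protein at 200 nM in PBS with 2% BSA, salmon testes DNA and 50 µM zinc acetate was applied for 1 h at 25 °C, followed by washing. The proteins were polyhistidine–DsRed N-terminal fusions of transcription factors, expressed in E. coli BL21-CodonPlus and Ni–NTA-purified. The binding signal is per-feature fluorescence intensity (arbitrary units) from an Axon 4000B scanner.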
row,Sequence,binding signal
1,TTAATTGCTAAGCTGTTCCGTCCATGGTTCACACTTCACACGGAGTCACCTAGTGCAG,8060 fluorescence intensity (a.u.)
2,TATATATATATATATATATATATATATATATATATGAAAGCGGAGTCACCTAGTGCAG,8250 fluorescence intensity (a.u.)
3,TATTTGTGATCCCGTGCATGCACTTTGGCACTCGTCCATGCGGAGTCACCTAGTGCAG,9750 fluorescence intensity (a.u.)
4,TCTCCATCGTGCCATCCACCGCGCGCTTCCGTCCACTCGCCGGAGTCACCTAGTGCAG,13000 fluorescence intensity (a.u.)
5,GCCTGTCGTTGGTGACTGTATTAGCTTAGTTTCCAGTGGTCGGAGTCACCTAGTGCAG,9060 fluorescence intensity (a.u.)
6,TCCGTTTCCTGCCCAACCGCGTCTTGAAAATTGTTGCTGCCGGAGTCACCTAGTGCAG,11600 fluorescence intensity (a.u.)
7,AAAACCGACGGGCTCATTCTCCAGCTTAACTCTCACAGGTCGGAGTCACCTAGTGCAG,8660 fluorescence intensity (a.u.)
8,CGATGATTTTGTTGCAGATATATTTTTTCCCAGCTTCTTTCGGAGTCACCTAGTGCAG,12100 fluorescence intensity (a.u.)
9,CCAAAACACTGCCGCACCACGCCTCGTTCCCGCGGACTCCCGGAGTCACCTAGTGCAG,9790 fluorescence intensity (a.u.)
10,ACGTCTCTATTACTACCTCCATTTCATGATGTAACAATTTCGGAGTCACCTAGTGCAG,13600 fluorescence intensity (a.u.)
11,ATCGCGAAGTTCGCGACCCGATTCCTCTCCGCCCGCCATGCGGAGTCACCTAGTGCAG,8380 fluorescence intensity (a.u.)
12,TTTTCGTTCATATTTAGTGCTTCATACGTATGTCTAAATACGGAGTCACCTAGTGCAG,10500 fluorescence intensity (a.u.)
13,GGTTGGTGGTTGGCAAAAGAGGACGTGTGAAGGAAAAGGTCGGAGTCACCTAGTGCAG,10900 fluorescence intensity (a.u.)
14,GAATGATTCTTATGATCATATCCAACTTATTACGTCCTGTCGGAGTCACCTAGTGCAG,9860 fluorescence intensity (a.u.)
15,TATCTTCTTGTACCTTTTGTCCTCTTATTGATTGTAAAAACGGAGTCACCTAGTGCAG,10300 fluorescence intensity (a.u.)
16,AGTTGGCACACCTGCTTTGGTCAACGTACGTTTATCAATCCGGAGTCACCTAGTGCAG,10100 fluorescence intensity (a.u.)
17,GGCTTCGCATCGCTCCTCCTCGTCTGACTTCGCGTCACTCCGGAGTCACCTAGTGCAG,8080 fluorescence intensity (a.u.)
18,AAGCAGCAAAAGTCACACATACACTCTCTCTGCTACTACTCGGAGTCACCTAGTGCAG,8160 fluorescence intensity (a.u.)
19,TTTTTTTTCATCTTGTCTGTCACCTGCCGCCCTCAGTCTACGGAGTCACCTAGTGCAG,9570 fluorescence intensity (a.u.)
20,TCGCTCTAACTTCTACTCGATCGTTTTTCACGCGCTCCTTCGGAGTCACCTAGTGCAG,11700 fluorescence intensity (a.u.)
21,TACAGGCTTTATTACAGGTCTTCTTATCGCCGGTCGTACGCGGAGTCACCTAGTGCAG,8640 fluorescence intensity (a.u.)

row,Sequence,binding signal
1,TCCACCGATTCGGCTTCCACCGCTGCCGATTCCCAATTCCCGGAGTCACCTAGTGCAG,12100 fluorescence intensity (a.u.)
2,TCACGTTGACCCGGTCGCCATGCACCCGCAAGCTCATCCACGGAGTCACCTAGTGCAG,9030 fluorescence intensity (a.u.)
3,TCTATACCTCTTTCTTTCTCGGTCTCTCCAGTACCCTACTCGGAGTCACCTAGTGCAG,11200 fluorescence intensity (a.u.)
4,TTCTCACTGAATTAGCTAGGGCTGCCTCGTCTCTTATTCTCGGAGTCACCTAGTGCAG,8410 fluorescence intensity (a.u.)
5,TCTATCAGACTCTTCTTTATCCAGTACCTTTTAGGGTTTGCGGAGTCACCTAGTGCAG,9010 fluorescence intensity (a.u.)
6,CCGCCGCCGCCCGTCCTGCCTGCTTCGCAGCCGCGCTAGCCGGAGTCACCTAGTGCAG,8650 fluorescence intensity (a.u.)
7,TCCACTCGCTCGTCTCGTCTCTCCGCTCTCTTCCGGACTTCGGAGTCACCTAGTGCAG,10200 fluorescence intensity (a.u.)
8,CTTGTTATGTTCCGTTTCTTCCAGCTTTGGTGCTCTCTCACGGAGTCACCTAGTGCAG,9010 fluorescence intensity (a.u.)
9,TCGCTCTTATCCTTTTTTTTTTCACACGAGTGCAACTGTCCGGAGTCACCTAGTGCAG,8450 fluorescence intensity (a.u.)
10,CCTATTGGACCACTAGAACATGTCGTCCTTCAGGCCAACTCGGAGTCACCTAGTGCAG,8050 fluorescence intensity (a.u.)
11,CACATTTTGTTAAACTTATCATTTCTACTTCCATATATTACGGAGTCACCTAGTGCAG,8220 fluorescence intensity (a.u.)
12,AAGTTACCACTCCGGCACTCACACAATCACATTCACATTTCGGAGTCACCTAGTGCAG,9820 fluorescence intensity (a.u.)
13,TGCATGCCTCGATCGTCTATCTCATCTTGTAGTGCGTTTCCGGAGTCACCTAGTGCAG,10000 fluorescence intensity (a.u.)
14,GCTGGGGAGGGAGGGGAGGCGGCCGGCCACCAACCCATCGCGGAGTCACCTAGTGCAG,11500 fluorescence intensity (a.u.)
15,CGTCCAGTCGTCGTAGCCCCTACTCGCCGGCGCCGCTCCACGGAGTCACCTAGTGCAG,9930 fluorescence intensity (a.u.)
16,GCAGTACCTTTTTTTCCCTTTTGGCACTTGAAAGCAACCTCGGAGTCACCTAGTGCAG,11700 fluorescence intensity (a.u.)
17,AACATGTTTGACCATTCGTCTTATTCAAAAACCTTTTGTGCGGAGTCACCTAGTGCAG,8040 fluorescence intensity (a.u.)
18,CATTTCTTGCCACCTTTATTCGATTCCACCACTTGACACACGGAGTCACCTAGTGCAG,9820 fluorescence intensity (a.u.)
19,CGCGTCACCGGATCCAACTCGGCCCACTCGCATCGATTCTCGGAGTCACCTAGTGCAG,12000 fluorescence intensity (a.u.)
20,ATACTCACATGGATTCACCTCTGTTATGATTTTTGACAAACGGAGTCACCTAGTGCAG,9380 fluorescence intensity (a.u.)
21,TCTTGGTTAGTTGGATTTTTAGCTTCCGTGTTTTTTGAGCCGGAGTCACCTAGTGCAG,10900 fluorescence intensity (a.u.)

# A run of entries from further up, as a working copy:
row,Sequence,binding signal
3,TCTATACCTCTTTCTTTCTCGGTCTCTCCAGTACCCTACTCGGAGTCACCTAGTGCAG,11200 fluorescence intensity (a.u.)
4,TTCTCACTGAATTAGCTAGGGCTGCCTCGTCTCTTATTCTCGGAGTCACCTAGTGCAG,8410 fluorescence intensity (a.u.)
5,TCTATCAGACTCTTCTTTATCCAGTACCTTTTAGGGTTTGCGGAGTCACCTAGTGCAG,9010 fluorescence intensity (a.u.)
6,CCGCCGCCGCCCGTCCTGCCTGCTTCGCAGCCGCGCTAGCCGGAGTCACCTAGTGCAG,8650 fluorescence intensity (a.u.)
7,TCCACTCGCTCGTCTCGTCTCTCCGCTCTCTTCCGGACTTCGGAGTCACCTAGTGCAG,10200 fluorescence intensity (a.u.)
8,CTTGTTATGTTCCGTTTCTTCCAGCTTTGGTGCTCTCTCACGGAGTCACCTAGTGCAG,9010 fluorescence intensity (a.u.)
9,TCGCTCTTATCCTTTTTTTTTTCACACGAGTGCAACTGTCCGGAGTCACCTAGTGCAG,8450 fluorescence intensity (a.u.)
10,CCTATTGGACCACTAGAACATGTCGTCCTTCAGGCCAACTCGGAGTCACCTAGTGCAG,8050 fluorescence intensity (a.u.)
11,CACATTTTGTTAAACTTATCATTTCTACTTCCATATATTACGGAGTCACCTAGTGCAG,8220 fluorescence intensity (a.u.)
12,AAGTTACCACTCCGGCACTCACACAATCACATTCACATTTCGGAGTCACCTAGTGCAG,9820 fluorescence intensity (a.u.)
13,TGCATGCCTCGATCGTCTATCTCATCTTGTAGTGCGTTTCCGGAGTCACCTAGTGCAG,10000 fluorescence intensity (a.u.)
